According to PubChem BioAssay AID2685 (National Center for Advancing Translational Sciences (NCATS), 2010):
Among all 320,000 compounds or so, about 2,100 (0.66%) were called active. Inconclusive means that the source gave no clear call. Such entries were picked first, then a sample of the others. Calls come from the whole dose curve; as a rule, active = well fitted inhibition curve with a large enough effect in the signal ratio, with a control signal flat (not every such curve was filed as active); inconclusive = small, poorly fitted or top-dose-only effect, or effect the other way, or a change in a side signal; inactive = flat fitted curve, though single readings scatter; the % refers to the signal ratio. Potencies of inconclusive entries are doubtful fits and often do not repeat.

test: qHTS Assay for Lipid Storage Modulators in Drosophila S3 Cells; settings: BODIPY lipid droplet fluorescence, 18-24 h, cells fed with added oleic acid; lipid storage change, negative = inhibition: at 46.1 µM (top of the series) unless noted
In short: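 Laser-scanning cytometry quantifies lipid droplet accumulation (500–530 nm total intensity; droplet/cell object ratio) in oleic acid-fed (400 uM added) Drosophila S3 cells treated with a concentration series. 20 uM Triacsin C defined 100% inhibition.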
% is set by controls: 0 for no effect and ±100 for the full control effect; potency is the fitted concentration of half-maximal effect.

| SMILES | lipid storage change, negative = inhibition | Potency |
| --- | --- | --- |
| O=C(Nc1ccc(Cc2ccc(NC(=O)C3CC3)cc2)cc1)C1CC1 | inconclusive: -26.6% |  |
| COc1ccccc1CNC(=O)COC(=O)C1=COCCO1 |  | inconclusive: 5.8 µM [falling, full curve] |
| COc1ccc(N2CCN(C(=O)CSc3nnnn3C3CC3)CC2)cc1 | inconclusive: 1.11% |  |
| O=C(CNc1cccc(S(=O)(=O)N2CCOCC2)c1)Nc1cccc(Br)c1 |  | inconclusive: 8.2 µM [activator, partial curve, poor fit] |
| COc1ccc(C2CC2/C(C)=N/OC(=O)c2ccc(F)cc2)cc1 (centres undefined) | inconclusive: 8.28% |  |
| Clc1ccc(SCc2cn3ccccc3n2)cc1 | inconclusive: 23% |  |
| CCNc1cc(S(=O)(=O)C(F)(F)F)ccc1N | inconclusive: -12.6% |  |
| COc1ccc(/C=N/NC(=O)c2[nH]c3ccc(Br)cc3c2-c2ccccc2)c(C(=O)O)c1OC |  | inconclusive: 29.1 µM [activator, single point] |
| Cc1[nH]nc2c1C(c1ccc(-c3ccccc3C#N)o1)C(C#N)=C(N)O2 (centres undefined) |  | inconclusive: 0.092 µM [activator, partial curve, poor fit] |
| CCn1nnnc1-c1ccc(OC)c(S(=O)(=O)Nc2ccc(C(=O)OC)cc2)c1 |  | inconclusive: 14.6 µM [activator, partial curve] |
| CCN1CCN(C(=O)CCCn2c(C)c3cnn(-c4ccccc4)c(=O)c3c2C)CC1 |  | inconclusive: 29.1 µM [activator, single point] |
| CCCC(=O)Nc1ccc(NC(=O)C23CC4CC(CC(C4)C2)C3)cn1 |  | inconclusive: 1.46 µM [falling, partial curve] |
| Cn1c(=O)c2c(nc(Cl)n2CCOc2ccccc2)n(C)c1=O |  | inconclusive: 29.1 µM [cytotoxic, single point] |
| Cc1cccn2c(=O)c(C=O)c(N3CCN(c4ccccc4)CC3)nc12 |  | inconclusive: 0.13 µM [falling, full curve, poor fit] |
| O=C(NCC1CCCO1)/C(=C\c1ccccc1F)NC(=O)c1ccccc1 (centres undefined) |  | inconclusive: 29.1 µM [falling, single point] |
| N=C(N)N=Nc1c(O)[nH]c2ccc(Br)cc12 | inconclusive: -5.42% [at 9.22 µM] |  |
| CCc1ccc(-c2cc(C(=O)NCc3ccccn3)c3ccccc3n2)cc1 |  | inconclusive: 2.59 µM [activator, full curve, poor fit] |
| O=C1CNC(=S)N1CCc1ccccc1Cl | inconclusive: 19.9% |  |
| CCn1c2ccccc2c2cc(CNCCCN3CCOCC3)ccc21 |  | inconclusive: 29.1 µM [activator, single point] |
| Cc1c(C(=O)Nc2ccncc2)oc2c1C(=O)CC(C)(C)C2 | inconclusive: 53.1% |  |
| COc1ccc(/C=N/NC(=S)Nc2ccccc2)cc1COc1cccc(C)c1C |  | inconclusive: 0.0146 µM [activator, full curve, poor fit] |
| COc1ccc(OC)c(-c2csc(NC(=O)C3CSC4(C)CCC(=O)N34)n2)c1 (centres undefined) | inactive |  |
| O=C(O)c1ccc2c(c1)S(=O)(=O)N=C1CCCCCN12 | inconclusive: 44.4% |  |
| CCN(c1ccccc1)S(=O)(=O)c1ccc(Oc2ccc(-n3ccnc3)cc2)nc1 | inconclusive: 2.84% |  |
| CCOC(=O)c1ccc(NC(=S)N(CCN(C)C)C(C)c2ccncc2)cc1 (centres undefined) | inconclusive: -3.6% |  |

| SMILES | lipid storage change, negative = inhibition | Potency |
| --- | --- | --- |
| CCOc1ccc(CCNC(=O)c2nnn(CC(=O)Nc3ccc(OC)c(OC)c3)c2N)cc1OCC | inconclusive: 216% |  |
| CC(NC(=O)c1cc(F)c(F)cc1Cl)C1CC2CCC1C2 (centres undefined) | inconclusive: -193% |  |
| Cc1oc(-c2cccs2)nc1CS(=O)CC(=O)NC1CCCCCC1 (centres undefined) | inconclusive: 66% [activator] |  |
| Cc1ccc(OCc2ccc(-c3ccccc3)cc2)c([N+](=O)[O-])n1 | inactive |  |
| CCOC(=O)Nc1ccc2c(CN(C)Cc3ccc(F)cc3)cc(=O)oc2c1 |  | inconclusive: 29.1 µM [falling, single point] |
| CCOC(=O)C1(O)CSc2nc3sc(C(=O)O)c(C)c3c(=O)n21 (centres undefined) |  | inconclusive: 32.6 µM [falling, partial curve] |
| CCc1ccc2[nH]c(C(=O)Nc3ccc(Br)c(C)n3)cc2c1 | inconclusive: 213% |  |
| O=C1CC(NS(=O)(=O)c2cc(F)ccc2F)CN1c1ccc2c(c1)OCCO2 (centres undefined) | inactive |  |
| CCOC(=O)N1CCN(CC(O)COc2ccccc2C(C)(C)C)CC1 (centres undefined) |  | inconclusive: 32.6 µM [falling, partial curve, poor fit] |
| COCCn1c(=NC(C)=O)sc2cc([N+](=O)[O-])ccc21 | inconclusive: 27.1% |  |
| CC(C)CCC[C@@H](C)[C@H]1CC[C@H]2[C@@H]3C(=O)C=C4C[C@@H](O)CC[C@]4(C)[C@H]3CC[C@]12C | inconclusive: -4.81% |  |
| Cc1nn(C)cc1CNCc1c(C(=O)N2CCCCC2)nc2c(C)cccn12 |  | inconclusive: 0.731 µM [cytotoxic, single point] |
| COc1cc(OC)cc(C(=O)N2CCN(C(=O)c3cccnc3)CC2)c1 |  | inconclusive: 0.13 µM [activator, full curve, poor fit] |
| COc1ccccc1/C=C/C(=O)OCC(=O)NNC(=O)c1ccccc1 | inconclusive: 27.7% |  |
| O=C(CCC1CCCC1)Nc1ccc([N+](=O)[O-])cn1 | inconclusive: -11.7% |  |
| O=C(OCc1ccc(Cl)cc1)c1cnccn1 |  | active: 7.31 µM |
| CC(=O)Nc1ccc(S(=O)(=O)NC(C)c2ccncc2)cc1 (centres undefined) |  | inconclusive: 29.1 µM [falling, single point] |
| Cc1ccc(S(=O)(=O)NC(CC(C)C)C(=O)N2CCC(C)CC2)cc1 (centres undefined) | inconclusive: 2.49% [at 9.22 µM] |  |
| O=C(CN1CCC(Cc2ccccc2)CC1)NC(=O)NCc1ccco1 | inconclusive: -42.1% |  |
| NC(=O)C1CCN(C(=O)c2cnn(-c3ccccc3)c2NC(=O)c2cccc(F)c2)CC1 |  | inconclusive: 29.1 µM [falling, single point] |
| CC(=O)N(c1ccccc1)C(C)c1nc(C#N)c(C#N)nc1C (centres undefined) | inconclusive: -6.72% |  |
| OCCN(CCO)CC(O)COc1ccc(Br)cc1 (centres undefined) | inconclusive: -26.1% |  |
| COC(=O)c1sccc1NC(=O)c1csc(C)c1 |  | inconclusive: 7.31 µM [activator, partial curve] |
| CC(/C=N/N1C(=O)CSC1=S)=C\c1ccccc1 | inconclusive: 20% |  |
| COc1ccccc1OCCn1c(=O)n(C)c2ccccc21 | inconclusive: -37.3% |  |

2 entries drawn at random from the list so far, as already listed:

| SMILES | lipid storage change, negative = inhibition | Potency |
| --- | --- | --- |
| NC(=O)C1CCN(C(=O)c2cnn(-c3ccccc3)c2NC(=O)c2cccc(F)c2)CC1 |  | inconclusive: 29.1 µM [falling, single point] |
| COCCn1c(=NC(C)=O)sc2cc([N+](=O)[O-])ccc21 | inconclusive: 27.1% |  |

Continued:

| SMILES | lipid storage change, negative = inhibition | Potency |
| --- | --- | --- |
| CC(=O)c1cccc(N(CC(=O)Nc2ccc(S(=O)(=O)N3CCOCC3)cc2)S(C)(=O)=O)c1 | inconclusive: 37.4% |  |
| Cc1cccc(C)c1NC(=O)CN1CCN(CC(=O)c2cc(C)n(C3CC3)c2C)CC1 |  | inconclusive: 29.1 µM [falling, partial curve, poor fit] |
| CC(C)CC(=O)Nc1nnc(S(=O)(=O)Nc2ccccc2)s1 |  | inconclusive: 0.116 µM [falling, full curve, poor fit] |
| Cc1c(OCc2ccc(C(=O)O)cc2)ccc2c(-c3ccccc3)cc(=O)oc12 |  | inconclusive: 6.51 µM [falling, single point] |
| CC(C)Cn1cnc2c(c(-c3ccccc3)c(-c3ccccc3)n2Cc2ccco2)c1=N |  | inconclusive: 6.51 µM [activator, partial curve, poor fit] |
| O=C(O)CCSC1CC(=O)N(c2ccccc2)C1=O (centres undefined) | inconclusive: -37.8% |  |
| C=CCn1c(SCC(=O)Nc2ccccc2-c2ccccc2)nc2cc(C(=O)O)ccc2c1=O | inconclusive: 23.6% |  |
| C=C(C)COc1ccc(-c2nc(N)nc(C)c2Oc2ccccc2OC)c(O)c1 | inconclusive: 208% |  |
| CCc1nnc(SCC(=O)Nc2ccccc2)n1CC1CCCO1 (centres undefined) | inconclusive: 118% |  |
| O=C(COc1ncnc2cc([N+](=O)[O-])ccc12)N(CCc1ccccc1)Cc1ccccc1 | inconclusive: -15.1% |  |
| O=C1C(=O)N(CCN2CCOCC2)C(c2ccccn2)/C1=C(/O)c1ccc(F)cc1 (centres undefined) | inconclusive: 48.6% |  |
| COc1ccc(OC)c(-c2nc(C(=O)NC3CCN(Cc4ccccc4)CC3)cc3c2[nH]c2ccccc23)c1 | inconclusive: -71.4% |  |
| CCN(C(=O)CN1CCN(c2ccc(O)cc2)CC1)c1c(N)n(Cc2ccccc2)c(=O)[nH]c1=O | inconclusive: 1.53% |  |
| COc1ccc(CC(=O)Nc2c3c(nn2C(C)(C)C)CS(=O)C3)cc1 (centres undefined) | inconclusive: 1.68% |  |
| CCN1CCN(c2ccc(S(=O)(=O)N3CCCCC3)cc2NC(=O)COc2ccc(Cl)c(C)c2)CC1 | inconclusive: -30.2% |  |
| CC1(C)Oc2ccc3ccc(=O)oc3c2/C(=C/O)C1=O |  | inconclusive: 5.17 µM [activator, partial curve] |
| COc1ccc(/C=C/c2c([N+](=O)[O-])c(=O)n(C)c(=O)n2C)cc1OC | inactive |  |
| Cc1cc(C)c[n+](CC(=O)c2ccccc2)c1 | inconclusive: 15.8% |  |
| Cc1nc(N)nc(N/N=C/c2ccccc2)n1 | inconclusive: 27.7% |  |
| CC1(C)CN(c2ccc(Br)cc2Br)C1=O | inconclusive: 15.7% |  |
| O=C(Cc1ccc2c(c1)OCCO2)N1CCN(S(=O)(=O)c2cccc(Cl)c2Cl)CC1 | inconclusive: 41.8% |  |
| OCCN(CC#CC(O)(c1ccccc1)c1ccccc1)CCO | inconclusive: 45.1% |  |
| COc1ccccc1-c1cn[nH]c1-c1ccc(O)cc1O | inconclusive: -30.5% |  |
| CCOc1ccc(C(=O)O)cn1 |  | inconclusive: 29.1 µM [falling, single point] |

Among those listed so far, 2 contain a cyano group:

| SMILES | lipid storage change, negative = inhibition | Potency |
| --- | --- | --- |
| Cc1[nH]nc2c1C(c1ccc(-c3ccccc3C#N)o1)C(C#N)=C(N)O2 (centres undefined) |  | inconclusive: 0.092 µM [activator, partial curve, poor fit] |
| CC(=O)N(c1ccccc1)C(C)c1nc(C#N)c(C#N)nc1C (centres undefined) | inconclusive: -6.72% |  |
